At least one read-out could not be matched to a standard name with certainty.
What was measured:
[1] = Study 1 Part 1: ascending single-dose pharmacokinetics in healthy volunteers; assay type: in vivo, human; details: healthy men, single oral doses of 2 to 150 mg
Excerpt: Study 1 was a 2-part single-center trial in healthy adult male volunteers.
Part 1 of the study enrolled and randomized 55 healthy men (placebo, n=14; 2-, 5-, 15, 25-, 50, and 100-mg doses, n=6 each; 150-mg dose, n=5). Eight healthy men participated in Part 2. […]

[2] = Study 2: ascending repeated-dose pharmacokinetics in healthy volunteers; assay type: in vivo, human; details: healthy adults, 5, 10, or 20 mg once daily for 14 days; Days 1 and 14

SMILES: CC(C)(NC(=O)O[C@@H]1CN2CCC1CC2)c1csc(-c2ccc(F)cc2)n1 [Compound 2, (S)-quinuclidin-3-yl 2-(2-(4-fluorophenyl)thiazol-4-yl)propan-2-ylcarbamate]
- Median time of maximal plasma concentration (Cmax) [1]: 3 to 5.5 h
- Median time of plasma Cmax post-dose [2]: 2 to 5 h
